Consider 1 sequence from paper PMC5500506.

The exact form of at least one protein or probe is not confirmed. No signal at the amounts used counts as a negative. Protein sequences can lack the tags named with them.

For this series, the system named is T1, GdmRIII (Streptomyces autolyticus CGMCC0516).
T1 sequence (looked up, limits assumed): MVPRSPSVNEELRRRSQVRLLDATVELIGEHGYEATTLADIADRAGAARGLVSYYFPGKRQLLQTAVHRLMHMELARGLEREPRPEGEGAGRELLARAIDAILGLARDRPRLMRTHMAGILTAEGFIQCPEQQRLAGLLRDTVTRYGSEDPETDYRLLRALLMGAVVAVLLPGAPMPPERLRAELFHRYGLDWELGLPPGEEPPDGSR
Description: competition EMSA. To be noted: 50-fold excess vs gdmM, gdmN (1.5 uM protein) and elaF (1.2 uM) probes; EMSA: 10 mM Tris-HCl pH 7.5, 50 mM NaCl, 10 mM MgCl2, 1 mM EDTA, 1 mM DTT, 5% glycerol, 0.1 ug/ul poly(dI-dC), 0.3 nM DNA; temperature not given; recombinant protein; probe letters rebuilt from the primers and the genome. (In EMSA bound probe runs differently from free probe, usually more slowly.)

On to “TGACACGGCGCGCTCCGGAAGAGGCGACCGCCACGAAGCGGAATGGCCGGAACGAGGATACGCCACGGCATTCATCGCCTCTTCGCTTTAGGGGCACGCCACCTCGATAGGGGGTTGACCGTGCGGCGCGCGTCCCGGATAACTGAACAGCGCGGTGTGCTGGACGAGATGCGGTGGACCGGGTTAGGGGGCGGAGGTTCCGGTAGGGGTTGATGCTGATGTGGACGCACTGATGGAATCGTTTCCCGATCAATATTCGGTCTGATTCAAGGATCGCGAGTCCATATTTCGTCGACCTCGATCGGGGACCCTCAAC (double strand) [non-specific competitor]”, for which the binding result is on record as “no binding”.
